Experiment: general procedure: solution-phase peptide synthesis; pentafluorophenyl ester (Tub-PFP), DIPEA

Row | Substance | step yield (late stage modification step) [% yield] | step yield (coupling step) [%]
1 | (18S,25S)-21,22-bis(3-(2,5-dioxo-2,5-dihydro-1H-pyrrol-1-yl)propanamido)-4,7,10,13,17,20,23,26,30,33,36,39-dodecaoxo-18,25-bis(29-oxo-2,5,8,11,14,17,20,23,26-nonaoxa-30-azatetratriacontan-34-yl)-3,6,9,12,16,19,24,27,31,34,37,40-dodecaazadotetra | 82 | –
2 | (18S,59S)-18-((benzyloxy)carbonyl)-59-((S)-2-(4-(2,5-dioxo-2,5-dihydro-1H-pyrrol-1-yl)butanamido)propanamido)-3,16,21,37,53,60,63,66,69-nonaoxo-1-phenyl-2,25,28,31,34,41,44,47,50-nonaoxa-17,22,38,54,61,64,67,70-octaazadoheptacontan-72-oic acid | – | 79
